Laboratory results as given in publication PMC11117073.
These are yes or no findings as the source states them, for the method shown. Some results given as binding are weak or reduced against the parent protein; the word gives no strength.

The chains behind the UniProt entries cited, without tags or fusion partners.
UniProt P46940: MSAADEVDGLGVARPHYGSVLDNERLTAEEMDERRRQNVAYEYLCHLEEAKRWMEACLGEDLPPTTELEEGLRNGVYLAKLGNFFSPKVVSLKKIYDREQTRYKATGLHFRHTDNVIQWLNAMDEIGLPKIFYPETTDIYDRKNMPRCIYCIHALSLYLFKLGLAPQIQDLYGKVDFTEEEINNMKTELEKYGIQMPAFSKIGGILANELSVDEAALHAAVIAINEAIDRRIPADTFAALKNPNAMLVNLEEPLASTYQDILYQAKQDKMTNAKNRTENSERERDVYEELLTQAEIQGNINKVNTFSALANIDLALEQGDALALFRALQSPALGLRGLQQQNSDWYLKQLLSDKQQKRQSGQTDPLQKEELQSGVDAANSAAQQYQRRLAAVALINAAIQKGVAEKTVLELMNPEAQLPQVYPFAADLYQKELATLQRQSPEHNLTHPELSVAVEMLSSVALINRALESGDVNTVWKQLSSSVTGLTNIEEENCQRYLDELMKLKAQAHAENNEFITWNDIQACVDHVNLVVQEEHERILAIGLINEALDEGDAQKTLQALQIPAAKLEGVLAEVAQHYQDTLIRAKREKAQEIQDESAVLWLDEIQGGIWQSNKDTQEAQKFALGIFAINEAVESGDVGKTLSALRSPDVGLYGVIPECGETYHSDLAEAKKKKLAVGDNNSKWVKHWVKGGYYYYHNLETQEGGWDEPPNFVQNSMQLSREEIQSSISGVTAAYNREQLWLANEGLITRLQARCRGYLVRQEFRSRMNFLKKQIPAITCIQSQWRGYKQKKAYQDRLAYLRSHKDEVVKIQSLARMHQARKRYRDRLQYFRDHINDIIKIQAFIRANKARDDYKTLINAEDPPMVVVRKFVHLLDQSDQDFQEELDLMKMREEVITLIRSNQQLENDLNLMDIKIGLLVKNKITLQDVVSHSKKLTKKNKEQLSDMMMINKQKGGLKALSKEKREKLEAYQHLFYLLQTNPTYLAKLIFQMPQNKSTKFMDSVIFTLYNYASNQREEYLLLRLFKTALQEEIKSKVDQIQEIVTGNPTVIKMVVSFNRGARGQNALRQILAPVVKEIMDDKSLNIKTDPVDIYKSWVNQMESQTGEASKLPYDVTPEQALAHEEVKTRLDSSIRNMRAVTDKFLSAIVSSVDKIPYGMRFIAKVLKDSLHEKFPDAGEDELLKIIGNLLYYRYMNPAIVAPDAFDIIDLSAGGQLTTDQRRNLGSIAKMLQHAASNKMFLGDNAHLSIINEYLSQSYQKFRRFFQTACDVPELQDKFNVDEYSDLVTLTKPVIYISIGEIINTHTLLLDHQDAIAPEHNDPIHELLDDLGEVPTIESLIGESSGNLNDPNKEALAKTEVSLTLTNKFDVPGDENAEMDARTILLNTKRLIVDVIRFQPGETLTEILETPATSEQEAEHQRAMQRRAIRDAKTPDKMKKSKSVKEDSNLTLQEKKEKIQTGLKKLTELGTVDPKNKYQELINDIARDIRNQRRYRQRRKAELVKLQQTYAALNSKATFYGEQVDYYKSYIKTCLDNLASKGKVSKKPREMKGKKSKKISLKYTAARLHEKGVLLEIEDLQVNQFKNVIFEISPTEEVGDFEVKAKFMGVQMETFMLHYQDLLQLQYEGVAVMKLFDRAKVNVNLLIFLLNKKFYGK

Biological target: 488-SNAP-IQGAP1 (full-length human IQGAP1, SNAP-tagged, labelled with SNAP-Surface 488) (human) (UniProt P46940)
Assay: multi-colour TIRF microscopy, plus-end occupancy (survival plots); 1 µM actin (10% Alexa 647 label) polymerising with 5 µM PFN1, 1 nM 549-SNAP-mDia1 construct and 1 nM 488-SNAP-IQGAP1; 5-s intervals for 15 min; both purified

How did the binding turn out when “549-SNAP-mDia1(ΔDAD) (amino acids 1-1,175) (from UniProt O08808 1-1175) (domain or fragment)” was run?
Its binding is “binds”.
